Experimental data as given in doi:10.1101/2024.11.05.621850.
Results are given in words; binding and its absence hold for the method and conditions named. Binding seen in cells or lysates may run through a third protein. Some results given as binding are weak or reduced against the parent protein; the word gives no strength. Sequences can lack the tags named with a protein. Values belong to the binder of their own block, whether it stands above or below them.

Chains of the proteins cited; added tags and fusions are not shown. Lines headed by an entry give the natural chain unless they say otherwise; changes in a name come on top.
UniProt P61106, whole entry, looked up, stated change not applied: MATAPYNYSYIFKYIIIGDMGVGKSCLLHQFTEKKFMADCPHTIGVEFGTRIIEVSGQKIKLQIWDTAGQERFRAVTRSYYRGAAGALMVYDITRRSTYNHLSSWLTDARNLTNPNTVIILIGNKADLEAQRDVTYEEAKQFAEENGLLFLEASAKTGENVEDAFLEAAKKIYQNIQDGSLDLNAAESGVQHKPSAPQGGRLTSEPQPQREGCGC

Legend:
[1] = molecular target: T1, EGFP:DENND6A (human (cDNA of HeLa, HCT116 and MCF7 cells)) (UniProt Q8IWF6); assay: co-IP
T1 sequence: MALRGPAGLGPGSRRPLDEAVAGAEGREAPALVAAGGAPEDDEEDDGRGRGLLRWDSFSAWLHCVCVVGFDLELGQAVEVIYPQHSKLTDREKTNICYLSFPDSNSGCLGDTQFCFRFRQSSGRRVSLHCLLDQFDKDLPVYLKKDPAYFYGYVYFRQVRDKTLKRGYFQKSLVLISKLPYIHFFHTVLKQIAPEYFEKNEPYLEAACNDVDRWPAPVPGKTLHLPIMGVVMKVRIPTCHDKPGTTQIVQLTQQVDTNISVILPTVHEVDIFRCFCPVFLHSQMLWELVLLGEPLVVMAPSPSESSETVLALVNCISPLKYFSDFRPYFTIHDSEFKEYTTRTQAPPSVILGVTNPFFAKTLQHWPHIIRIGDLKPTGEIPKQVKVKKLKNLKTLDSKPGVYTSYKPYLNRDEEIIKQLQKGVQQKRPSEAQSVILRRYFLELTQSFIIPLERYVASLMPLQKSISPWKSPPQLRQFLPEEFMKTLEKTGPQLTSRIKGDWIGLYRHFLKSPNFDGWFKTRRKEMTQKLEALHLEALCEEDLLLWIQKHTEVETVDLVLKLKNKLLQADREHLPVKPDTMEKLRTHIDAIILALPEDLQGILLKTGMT

[2] = molecular target: GFP:RAB14 Q70L (CA) (human) (UniProt P61106); assay: co-IP
[3] = molecular target: GFP:RAB14 Q70L (CA) (human) (UniProt P61106); assay: proximity ligation

binding [1]: binds
B1: HA:RAB25 WT (protein, UniProt P57735 1-213)
chain: MGNGTEEDYNFVFKVVLIGESGVGKTNLLSRFTRNEFSHDSRTTIGVEFSTRTVMLGTAAVKAQIWDTAGLERYRAITSAYYRGAVGALLVFDLTKHQTYAVVERWLKELYDHAEATIVVMLVGNKSDLSQAREVPTEEARMFAENNGLLFLETSALDSTNVELAFETVLKEIFAKVSKQRQNSIRTNAITLGSAQAGQEPGPGEKRACCISL

binding [2]: binds weakly
binding [3]: binds
B2: VPS54-13xMYC (protein, UniProt Q9P1Q0 1-977)
chain: MASSHSSSPVPQGSSSDVFFKIEVDPSKHIRPVPSLPDVCPKEPTGDSHSLYVAPSLVTDQHRWTVYHSKVNLPAALNDPRLAKRESDFFTKTWGLDFVDTEVIPSFYLPQISKEHFTVYQQEISQREKIHERCKNICPPKDTFERTLLHTHDKSRTDLEQVPKIFMKPDFALDDSLTFNSVLPWSHFNTAGGKGNRDAASSKLLQEKLSHYLDIVEVNIAHQISLRSEAFFHAMTSQHELQDYLRKTSQAVKMLRDKIAQIDKVMCEGSLHILRLALTRNNCVKVYNKLKLMATVHQTQPTVQVLLSTSEFVGALDLIATTQEVLQQELQGIHSFRHLGSQLCELEKLIDKMMIAEFSTYSHSDLNRPLEDDCQVLEEERLISLVFGLLKQRKLNFLEIYGEKMVITAKNIIKQCVINKVSQTEEIDTDVVVKLADQMRMLNFPQWFDLLKDIFSKFTIFLQRVKATLNIIHSVVLSVLDKNQRTRELEEISQQKNAAKDNSLDTEVAYLIHEGMFISDAFGEGELTPIAVDTTSQRNASPNSEPCSSDSVSEPECTTDSSSSKEHTSSSAIPGGVDIMVSEDMKLTDSELGKLANNIQELLYSASDICHDRAVKFLMSRAKDGFLEKLNSMEFITLSRLMETFILDTEQICGRKSTSLLGALQSQAIKFVNRFHEERKTKLSLLLDNERWKQADVPAEFQDLVDSLSDGKIALPEKKSGATEERKPAEVLIVEGQQYAVVGTVLLLIRIILEYCQCVDNIPSVTTDMLTRLSDLLKYFNSRSCQLVLGAGALQVVGLKTITTKNLALSSRCLQLIVHYIPVIRAHFEARLPPKQYSMLRHFDHITKDYHDHIAEISAKLVAIMDSLFDKLLSKYEVKAPVPSACFRNICKQMTKMHEAIFDLLPEEQTQMLFLRINASYKLHLKKQLSHLNVINDGGPQNGLVTADVAFYTGNLQALKGLKDLDLNMAEIWEQKR
